Results are given in words; binding and its absence hold for the method and conditions named. A result given as binding can be weak or reduced; the word gives no strength.
Target: human p55 TNF receptor (human) (UniProt P19438)
Experiment: selection from a dAb library

Protein sequences, listed by entry. Tags and fused reporters are not part of them. Lines headed by an entry give the natural chain unless they say otherwise; changes in a name come on top.
UniProt P19438: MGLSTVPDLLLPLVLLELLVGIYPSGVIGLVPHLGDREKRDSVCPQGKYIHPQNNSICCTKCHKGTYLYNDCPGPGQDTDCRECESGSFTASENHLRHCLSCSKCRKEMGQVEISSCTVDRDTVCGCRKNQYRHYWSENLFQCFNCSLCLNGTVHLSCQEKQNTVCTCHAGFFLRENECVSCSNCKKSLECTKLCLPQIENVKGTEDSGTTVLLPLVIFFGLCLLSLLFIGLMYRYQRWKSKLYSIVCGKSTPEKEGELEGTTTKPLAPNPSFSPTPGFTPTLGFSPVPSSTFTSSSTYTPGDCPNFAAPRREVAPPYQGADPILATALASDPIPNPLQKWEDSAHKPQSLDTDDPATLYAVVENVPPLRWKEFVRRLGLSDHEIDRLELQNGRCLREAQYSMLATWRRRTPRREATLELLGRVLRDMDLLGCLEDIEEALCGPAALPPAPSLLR

binding: binds
B1: TAR2h-5 (protein)
VH: EVQLLESGGGLVQPGGSLRLSCAASGFTFDLYNMFWVRQAPGKGLEWVSFISQTGRLTWYADSVKGRFTISRDNSKNTLYLQMNSLRAEDTAVYYCAKTLEDFDYWGQGTLVTVSS

From patent US20060257406A1 (published 2006)
